# According to patent publication US20080234355A1, “DNA METHYL TRANSFERASE INHIBITORS CONTAINING A ZINC BINDING MOIETY” (priority 2006, published 2008):
# At least one compound was matched to its structure with a doubt left.
# System: HDAC
# Assay: HDAC fluorimetric assay kit (AK-500, Biomol), HeLa nuclear extract
# Format: biochemical
# Settings: Fluor de Lys substrate, 1 hour reaction, read-out: HDAC IC50 (grade)
# Method: (a) An In Vitro Assay which Determines the Ability of a Test Compound to Inhibit HDAC Enzymatic Activity.
# HDAC inhibitors were screened using an HDAC fluorimetric assay kit (AK-500, Biomol, Plymouth Meeting, Pa.). Test compounds were dissolved in dimethylsulphoxide (DMSO) to give a 20 mM working stock concentration. Fluorescence was measured on a WALLAC Victor 2 plate reader and reported as relative fluorescence units (RFU). Data were plotted using GraphPad Prism (v4.0a) and IC50's calculated using a sigmoidal dose response curve fitting algorithm.
# Each assay was setup as follows: Defrosted all kit components and kept on ice until use. Diluted HeLa nuclear extract 1:29 in Assay Buffer (50 mM Tris/Cl, pH 8.0, 137 mM NaCl, 2.7 mM KCl, 1 mM MgCl2). […] Allowed diluted Fluor de Lys™ Substrate and the samples in the microtiter plate to equilibrate to assay temperature (e.g. 25 or 37° C. Initiated HDAC reactions by adding diluted substrate (25 μl) to each well and mixing thoroughly. Allowed HDAC reactions to proceed for 1 hour and then stopped them by addition of Fluor de Lys™ Developer (50 μl). Incubated plate at room temperature (25° C.) for 10-15 min. Read samples in a microtiter-plate reading fluorimeter capable of excitation at a wavelength in the range 350-380 nm and detection of emitted light in the range 440-460 nm.
smiles,measurement,value
"CCN(CCNC(=O)c1ccc(N)cc1)CCC(=O)NO [Compound 31, 4-amino-N-(2-(ethyl(3-(hydroxyamino)-3-oxopropyl)amino)ethyl)benzamide]",IC50,> 10 µM
